Measurements taken from the supplement of paper PMC6658780.
Counter-ions that a name gives are not always drawn. ± gives the standard deviation of the averaged measurements. The list shows a part of the results. This data set is noisy: repeats of one test often differ as much as different tests do.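 Clinical A. baumannii isolates resistant to the partner antibiotic were chosen, and the screen identifies drugs restoring that antibiotic's activity. Subtracting the initial incubation reading corrects for coloured-compound background.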

Assays:
[1] = test system: Acinetobacter baumannii WP-487; assay: percent growth inhibition of drug alone vs DMSO control; higher = more growth inhibition; settings: antibiotic (0.125x MIC): none (0.1% DMSO)
[2] = test system: Acinetobacter baumannii WP-487; assay: percent growth inhibition of drug + antibiotic vs DMSO control; higher = more growth inhibition; settings: antibiotic (0.125x MIC): colistin

SMILES | percent growth inhibition of drug alone ([1]; 7 µM) [%] | percent growth inhibition of drug alone ([1]; 20 µM) [%] | percent growth inhibition ([2]; 7 µM) [%] | percent growth inhibition ([2]; 20 µM) [%]
CC(C)COCC(CN(Cc1ccccc1)c1ccccc1)N1CCCC1 (stereo not drawn) [Bepridil hydrochloride] | -0.914 ± 8.3 | -2.11 ± 0.053 |  | 
CN[C@H]1CC[C@@H](c2ccc(Cl)c(Cl)c2)c2ccccc21 [Sertraline] | 3.51 ± 2 | 3.8 ± 0.37 |  | 
CN(C)CCOc1ccc(/C(=C(/CCCl)c2ccccc2)c2ccccc2)cc1 [Toremifene] | -2.77 ± 14 | 0.685 ± 0.48 |  | 
CCOC1O[C@H]([C@@H](COCc2ccccc2)OCc2ccccc2)[C@H](OCc2ccccc2)[C@H]1O (stereo partly drawn) [Tribenoside] | -4.06 ± 3.1 | 1.03 ± 0.34 |  | 
CN1CCC(=C2c3ccccc3Sc3ccccc32)CC1 [Pimethixene maleate] | 1.77 ± 7.7 | 1.56 ± 4.3 |  | 
CN[C@H](CC(C)C)C(=O)N[C@H]1C(=O)N[C@@H](CC(N)=O)C(=O)N[C@H]2C(=O)N[C@H]3C(=O)N[C@H](C(=O)N[C@H](C(=O)O)c4cc(O)cc(O)c4-c4cc3ccc4O)[C@H](O)c3ccc(c(Cl)c3)Oc3cc2cc(c3O[C@@H]2O[C@H](CO)[C@@H](O)[C@H](O)[C@H]2O[C@H]2C[C@](C)(N)[C@H](O)[C@H](C)O2)Oc2ccc(cc2Cl)[C@H]1O [Vancomycin hydrochloride] | -0.122 ± 3.9 | 2.39 ± 3.2 |  | 
Fc1ccc(C(c2ccc(F)cc2)N2CCN(C/C=C/c3ccccc3)CC2)cc1 [Flunarizine dihydrochloride] | 0.857 ± 6.8 | 0.241 ± 3.1 |  | 
CC(=O)O[C@H]1C[C@@]2(C)[C@@H](C[C@@H](O)[C@H]3[C@@]4(C)CC[C@@H](O)[C@@H](C)[C@@H]4CC[C@@]32C)/C1=C(\CCC=C(C)C)C(=O)O [Fusidic acid sodium salt] | 1.55 ± 5.9 | -1.43 ± 3.2 |  | 
CCN(CC)C(=S)SSC(=S)N(CC)CC [Disulfiram] | 7.17 ± 5.3 | 54 ± 81 |  | 
CCN(CC)Cc1cc(Nc2ccnc3cc(Cl)ccc23)ccc1O [Amodiaquin dihydrochloride dihydrate] | 3.97 ± 4.2 | 13.8 ± 9.8 |  | 
Nc1ccc(S(=O)(=O)c2ccc(N)cc2)cc1 [Dapsone] | 11.8 ± 6.2 | 51.7 ± 60 |  | 
CC(C)(C)CC(C)(C)c1ccc(OCCOCC[N+](C)(C)Cc2ccccc2)cc1 [Benzethonium chloride] | -2.36 ± 9.7 | 1.23 ± 3.8 |  | 
COC(=O)C1=C(C)NC(C)=C(C(=O)OC2CCCN(Cc3ccccc3)C2)C1c1cccc([N+](=O)[O-])c1 (stereo not drawn) [Benidipine hydrochloride] | -2.06 ± 3.1 | -2.68 ± 1.2 |  | 
OC(c1cc(C(F)(F)F)nc2c(C(F)(F)F)cccc12)C1CCCCN1 (stereo not drawn) [Mefloquine hydrochloride] | 6.85 ± 1.6 | 8.36 ± 14 |  | 
CCCCC(=O)O[C@H]1CC[C@H]2[C@@H]3CCc4cc(O)ccc4[C@H]3CC[C@]12C [Estradiol Valerate] | 2.65 ± 0.78 | 6.88 ± 2.5 |  | 
COCCOC(=O)C1=C(C)NC(C)=C(C(=O)OC/C=C/c2ccccc2)C1c1cccc([N+](=O)[O-])c1 (stereo not drawn) [Cilnidipine] | 0.481 ± 4.9 | 5.42 ± 5.2 |  | 
Cc1cc(/C=C/c2ccc3cc(N(C)C)ccc3[n+]2C)c(C)n1-c1ccccc1 [Pyrvinium pamoate] | 5.79 ± 3.1 | 8.84 ± 11 | 53.2 ± 56 | 54.7 ± 57
CSc1nc2cc(Cl)c(Oc3cccc(Cl)c3Cl)cc2[nH]1 [Triclabendazole] | 4.64 ± 3.5 | 13.6 ± 14 | 49.5 ± 58 | 59.9 ± 47
OCCN1CCN(CCCN2c3ccccc3Sc3ccc(C(F)(F)F)cc32)CC1 [Fluphenazine dihydrochloride] | -3.05 ± 11 | -6.79 ± 4.6 | 48 ± 59 | 45.6 ± 63
O=C1NCCN1CCN1CCC(c2cn(-c3ccc(F)cc3)c3ccc(Cl)cc23)CC1 [Sertindole] | 2.29 ± 5.7 | 11.9 ± 17 | 51.3 ± 56 | 57 ± 50
COc1cc(NS(=O)(=O)c2ccc(N)cc2)ncn1 [Sulfamonomethoxine] |  |  | 45.6 ± 72 | 53.9 ± 60
Nc1ccc(S(=O)(=O)Nc2ccccn2)cc1 [Sulfapyridine] | 13.4 ± 8 | 49 ± 62 | 6.28 ± 1 | 46.5 ± 69
Clc1ccc(C(Cn2ccnc2)OCc2csc3c(Cl)cccc23)c(Cl)c1 (stereo not drawn) [Sertaconazole nitrate] | 7.14 ± 10 | 15.8 ± 21 | 60.9 ± 46 | 62.9 ± 44
Nc1nc(/C(=C/CC(=O)O)C(=O)N[C@@H]2C(=O)N3C(C(=O)O)=CCS[C@H]23)cs1 [Ceftibuten] | 5.73 ± 0.076 | 7.58 ± 10 | 20.8 ± 35 | 66.4 ± 40
CCC(C)(C)c1ccc(CC(C)CN2C[C@@H](C)O[C@@H](C)C2)cc1 (stereo partly drawn) [Amorolfine hydrochloride] |  |  | -0.56 ± 2.7 | 51.2 ± 59
CC[C@H](c1ccc(O)cc1)[C@@H](CC)c1ccc(O)cc1 [Hexestrol] | 0.867 ± 8.1 | -4.41 ± 2.2 | 45 ± 64 | 48.9 ± 59
CC[C@H]1OC(=O)[C@H](C)[C@@H](O[C@H]2C[C@@](C)(OC)[C@@H](O)[C@H](C)O2)[C@H](C)[C@@H](O[C@@H]2O[C@H](C)C[C@H](N(C)C)[C@H]2O)[C@](C)(O)C[C@@H](C)/C(=N\OCOCCOC)[C@H](C)[C@@H](O)[C@]1(C)O [Roxithromycin] | 42.5 ± 34 | 61.5 ± 53 | 42.9 ± 81 | 53.2 ± 66
CCCCOC(=O)c1ccc(N)cc1 [Butamben] | -8.07 ± 19 | -0.587 ± 0.99 | 38.2 ± 52 | 8.12 ± 9.7

Ordered by heavy-atom count (falling): three of the compounds above
SMILES | percent growth inhibition of drug alone ([1]; 7 µM) [%] | percent growth inhibition of drug alone ([1]; 20 µM) [%] | percent growth inhibition ([2]; 7 µM) [%] | percent growth inhibition ([2]; 20 µM) [%]
CN[C@H](CC(C)C)C(=O)N[C@H]1C(=O)N[C@@H](CC(N)=O)C(=O)N[C@H]2C(=O)N[C@H]3C(=O)N[C@H](C(=O)N[C@H](C(=O)O)c4cc(O)cc(O)c4-c4cc3ccc4O)[C@H](O)c3ccc(c(Cl)c3)Oc3cc2cc(c3O[C@@H]2O[C@H](CO)[C@@H](O)[C@H](O)[C@H]2O[C@H]2C[C@](C)(N)[C@H](O)[C@H](C)O2)Oc2ccc(cc2Cl)[C@H]1O [Vancomycin hydrochloride] | -0.122 ± 3.9 | 2.39 ± 3.2 |  | 
CC(=O)O[C@H]1C[C@@]2(C)[C@@H](C[C@@H](O)[C@H]3[C@@]4(C)CC[C@@H](O)[C@@H](C)[C@@H]4CC[C@@]32C)/C1=C(\CCC=C(C)C)C(=O)O [Fusidic acid sodium salt] | 1.55 ± 5.9 | -1.43 ± 3.2 |  | 
Fc1ccc(C(c2ccc(F)cc2)N2CCN(C/C=C/c3ccccc3)CC2)cc1 [Flunarizine dihydrochloride] | 0.857 ± 6.8 | 0.241 ± 3.1 |  | 

Remaining list, next part

SMILES | percent growth inhibition of drug alone ([1]; 7 µM) [%] | percent growth inhibition of drug alone ([1]; 20 µM) [%] | percent growth inhibition ([2]; 7 µM) [%] | percent growth inhibition ([2]; 20 µM) [%]
Clc1ccc(CO/N=C(\Cn2ccnc2)c2ccc(Cl)cc2Cl)c(Cl)c1 [Oxiconazole Nitrate] | -1.93 ± 3.2 | 0.938 ± 7.4 | 50.8 ± 57 | 56 ± 51
CCOC(=O)OC(C)OC(=O)[C@@H]1N2C(=O)[C@@H](NC(=O)[C@H](N)c3ccccc3)[C@H]2SC1(C)C (stereo partly drawn) [Bacampicillin hydrochloride] | 5.58 ± 4.4 | 3.36 ± 2.6 | -0.292 ± 6.3 | 66.9 ± 28
c1ccc(-c2ccc(C(c3ccccc3)n3ccnc3)cc2)cc1 (stereo not drawn) [Bifonazole] | 1.34 ± 1.7 | 12.5 ± 18 | 55.1 ± 52 | 64.1 ± 42
Cc1cn([C@H]2C[C@H](N=[N+]=[N-])[C@@H](CO)O2)c(=O)[nH]c1=O [Zidovudine, AZT] | -2.45 ± 7.7 | 1.03 ± 3.3 | 45.8 ± 60 | 51.7 ± 52
CCCCCCCCCCCCCCCC[N+](C)(C)CCN(Cc1ccc(OC)cc1)c1ncccn1 [Thonzonium bromide] | 0.00908 ± 8.3 | 81.6 ± 6.1 | 42.5 ± 81 | 98.3 ± 3.9
CCOC(=O)C1=C(C)NC(C)=C(C(=O)OC)C1c1cccc(Cl)c1Cl (stereo not drawn) [Felodipine] | -1.61 ± 7.2 | 0.104 ± 0.12 | -0.968 ± 9.2 | 42.4 ± 62
CCc1nn(CCCN2CCN(c3cccc(Cl)c3)CC2)c(=O)n1CCOc1ccccc1 [Nefazodone hydrochloride] | 7.46 ± 5.1 | 13.1 ± 4.4 | 22.9 ± 47 | 53 ± 66
Clc1ccc(CSC(Cn2ccnc2)c2ccc(Cl)cc2Cl)cc1 (stereo not drawn) [Sulconazole nitrate] | -3.43 ± 5 | 2.88 ± 10 | 55.5 ± 51 | 58.9 ± 48
Cc1cccc(C)c1NC(=O)CN1CCN(CCCC(c2ccc(F)cc2)c2ccc(F)cc2)CC1 [Lidoflazine] | -1.75 ± 7.5 | -2.77 ± 3.3 | 1.5 ± 3 | 59.2 ± 58
N#CC(c1ccc(Cl)cc1)c1c(Cl)cc(-n2ncc(=O)[nH]c2=O)cc1Cl (stereo not drawn) [Diclazuril] | 3.53 ± 1.4 | -2.27 ± 2.1 | 2.74 ± 7.8 | 55.1 ± 64
CN(C)CC/C=C1/c2ccccc2Sc2ccc(Cl)cc21 [Chlorprothixene hydrochloride] | 0.949 ± 4.9 | 2 ± 0.35 | 6.42 ± 16 | 52.1 ± 68
CCc1oc2ccccc2c1C(=O)c1cc(Br)c(O)c(Br)c1 [Benzbromarone] | 5.19 ± 0.65 | 5.22 ± 6.6 | 51.1 ± 52 | 52.6 ± 54
COc1cccc(N(C)C(=S)Oc2ccc3c(c2)CCCC3)n1 [Liranaftate] | 2.48 ± 3 | 0.512 ± 1.9 | 49 ± 59 | 47.9 ± 61
COC(=O)C1=C(C)NC(C)=C(C(=O)OCCN(C)Cc2ccccc2)C1c1cccc([N+](=O)[O-])c1 (stereo not drawn) [Nicardipine hydrochloride] | 3.82 ± 4.9 | -0.364 ± 1.8 | -5.19 ± 3.3 | 59.5 ± 55
COc1ccc(CN2CCN(C(c3ccc(F)cc3)c3ccc(F)cc3)CC2)c(OC)c1OC [Lomerizine hydrochloride] | 3.13 ± 4.9 | 5.88 ± 7.1 | 1.32 ± 6.9 | 54.6 ± 64
CN1CCC[C@@H]1CCO[C@](C)(c1ccccc1)c1ccc(Cl)cc1 [Clemastine fumarate] | 0.518 ± 5.2 | -0.575 ± 0.93 | 20.6 ± 19 | 56.4 ± 53
COc1ccc(C(=O)CC(=O)c2ccc(C(C)(C)C)cc2)cc1 [Avobenzone] | 27 ± 23 | 26.9 ± 28 | 13.6 ± 21 | 52 ± 65
Clc1ccc(C(Cn2ccnc2)OCc2c(Cl)cccc2Cl)c(Cl)c1 (stereo not drawn) [Isoconazole] | 2.26 ± 0.6 | 19.9 ± 27 | 47.4 ± 61 | 58.7 ± 48
CCCCc1cc2ccccc2c(OCCN(C)C)n1 [Dimethisoquin hydrochloride] | 0.337 ± 8.5 | 5.4 ± 6.9 | 7.54 ± 11 | 57.4 ± 60
OCCN1CCN(CCCN2c3ccccc3Sc3ccc(Cl)cc32)CC1 [Perphenazine] |  |  | 16.7 ± 16 | 57 ± 61
Nc1ccc(S(=O)(=O)Nc2ccnn2-c2ccccc2)cc1 [Sulfaphenazole] |  |  | 4.31 ± 13 | 47.3 ± 70
CC(=O)[C@@]12O[C@](C)(c3ccccc3)O[C@@H]1C[C@H]1[C@@H]3CCC4=CC(=O)CC[C@]4(C)[C@H]3CC[C@@]12C [Algestone acetophenide] |  |  | -2.57 ± 18 | 43 ± 80
NC[C@H]1O[C@H](O[C@H]2[C@H](O)[C@@H](O[C@H]3O[C@H](CO)[C@@H](O)[C@H](N)[C@H]3O)[C@H](N)C[C@@H]2N)[C@H](N)C[C@@H]1O [Tobramycin] |  |  | 49.9 ± 71 | 50.5 ± 70
OCCN1CCN(CC/C=C2/c3ccccc3Sc3ccc(Cl)cc32)CC1 [Zuclopenthixol dihydrochloride] |  |  | 51 ± 56 | 50.7 ± 57
Cc1cccc(CN2CCN(C(c3ccccc3)c3ccc(Cl)cc3)CC2)c1 (stereo not drawn) [Meclozine dihydrochloride] |  |  | 25 ± 30 | 53.9 ± 65
CN(C)CCCN1c2ccccc2CCc2ccc(Cl)cc21 [Clomipramine hydrochloride] |  |  | 13 ± 16 | 60 ± 56
CC(C)(C)C(=O)OCOC(=O)[C@@H]1N2C(=O)[C@@H](/N=C/N3CCCCCC3)[C@H]2SC1(C)C [Pivmecillinam hydrochloride] |  |  | 26 ± 28 | 49.9 ± 58
